The list shows a part of the results. Further columns of the screen follow, without active or inactive calls. The list favours compounds with an active or inconclusive main result. Words in brackets tell the shape of the fitted curve; partial curves, single points and poor fits give uncertain potencies.
Assay: qHTS Assay to Find Inhibitors of Chronic Active B-Cell Receptor Signaling
Details: ABC-DLBCL IkBa-CBG/CBR reporter, luminescence ratio (green luciferase fused to IkBa over red control in TMD8 lymphoma cells), 4 h
Outline: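 TMD8 human ABC-DLBCL cells with doxycycline-inducible IκBα–green luciferase fusion and unfused red luciferase, in 0.5% FBS medium; compounds up to 46 uM, 4 h at 37C. Green/red luminescence ratio, filter-overlap corrected, fitted to concentration-response curves.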

[1] = measured here: CBR red luminescence, cell number
[2] = measured here: IkBa-CBG green luminescence

SMILES | AC50 [1] | AC50 [2]
CC(=O)n1c2c(c3ccccc31)OC(N)=C(C#N)C2c1ccc(C(C)C)cc1 (stereo not drawn) | 12.6 µM [falling, partial curve, poor fit] | –
CC1(C)Cc2c(sc(NC(=O)c3ccco3)c2C#N)CO1 | 2.82 µM [rising, partial curve, poor fit] | –
Cc1ccc(C2=NC(C)(C)N=C2SCC(=O)Nc2ccc(Cl)cc2)cc1 | 18.4 µM [falling, single point] | –
O=C(NC1CCCCC1)c1cc(N2C(=O)CCC2=O)ccc1Cl | 0.224 µM [rising, full curve, poor fit] | –
O=C(Nc1nncs1)c1ccc2c(c1)OCO2 | 2.51 µM [falling, full curve] | –
O=C(COc1ccccc1[N+](=O)[O-])Nc1ccc(Br)cc1 | 8.91 µM [rising, full curve, poor fit] | –
COc1ccc(/C=N/NC(=O)c2cccnc2)cc1CN1CCCc2ccccc21 | 20 µM [falling, single point] | –
Cc1cccc(NC(=O)CSc2nc3ccccc3c(=O)n2CC2CCCO2)c1 (stereo not drawn) | 29.1 µM [falling, single point] | –
O=C(Nc1ccccc1C(=O)NCc1ccccc1)c1ccco1 | 6.51 µM [falling, partial curve, poor fit] | 3.66 µM [rising, partial curve, poor fit]
CCCn1c(=O)[nH]c(=O)c2c1nc(-c1ccc(OC(F)F)c(OC)c1)n2CCOC | 8.2 µM [rising, single point] | –
C/C(=N\Nc1nncc2ccccc12)c1ccc(C(C)(C)C)cc1 | 0.112 µM [rising, full curve, poor fit] | –
COc1ccc(CN2CCN(Cc3cccn3-c3ncccn3)CC2CCO)c(C)c1C (stereo not drawn) | 0.708 µM [rising, partial curve, poor fit] | –
Cc1nnc(SC(=O)N2c3ccccc3Sc3ccccc32)s1 | 8.2 µM [falling, partial curve] | –
Cc1ccc(NC(=O)CCCc2nc3ccccc3s2)c(O)c1 | 3.16 µM [rising, single point] | –
COc1ccccc1Nc1ccc(C(=O)O)cc1[N+](=O)[O-] | 5.01 µM [falling, partial curve] | –
CC1(c2ccc(Cl)cc2)NC(=O)N(CC(=O)Nc2ccc(F)cc2)C1=O (stereo not drawn) | 12.6 µM [falling, partial curve, poor fit] | –
O=C(Nc1ccc(Oc2cccc3ccccc23)cc1)c1ccco1 | 2.59 µM [rising, partial curve] | –
Cc1cc(SCC#N)n2nc(C)c(-c3ccccc3)c2n1 | 8.91 µM [falling, partial curve] | 2.51 µM [falling, full curve]
CCCCSc1ncc(C(=O)OCC)c(N)n1 | 2.59 µM [rising, partial curve, poor fit] | –
CC(C)Cc1cc(C(=O)N2CCC(N3CCC(C(=O)NC4CC4)CC3)CC2)n[nH]1 | 10 µM [falling, partial curve] | –
CC1CCc2c(sc3nc(SCC(=O)NCc4ccco4)nc(N)c23)C1 (stereo not drawn) | 17.8 µM [falling, partial curve] | –

SMILES | AC50 [1] | AC50 [2]
COc1ccccc1N1CCN(S(=O)(=O)c2cccs2)CC1 | 32.6 µM [rising, partial curve, poor fit] | –
CNC(=O)NC(=O)COC(=O)CCCSc1nc2ccccc2s1 | 9.2 µM [falling, partial curve] | –
Cc1cccc(-n2ccc(=O)c(C(=O)O)n2)c1 | 2.82 µM [rising, single point] | –
O=C1CCc2cc(S(=O)(=O)NCc3ccccc3)cc3c2N1CC3 | 0.651 µM [rising, full curve, poor fit] | –
CC1CCCCN1C(=O)COC(=O)CNC(=O)c1ccc(Cl)cc1Cl (stereo not drawn) | 32.6 µM [rising, partial curve, poor fit] | –
Cc1ccc2nc(NC(=O)CC3Oc4ccccc4NC3=O)sc2c1 (stereo not drawn) | 1.41 µM [rising, full curve, poor fit] | –
COc1ccc(CCNC(=O)c2cc(Nc3ccccc3)nc3ccccc23)cc1OC | 7.08 µM [falling, full curve, poor fit] | –
CCCCNC(=O)c1onc(CSc2ccccc2)c1C(=O)O | 35.5 µM [falling, single point] | –
c1ccc(OCc2nnc(-c3ccccc3)o2)cc1 | 15.8 µM [falling, single point] | –
C=CCc1cc(/C=N/n2cnnc2)cc(OCC)c1O | 10 µM [rising, partial curve, poor fit] | –
S=c1[nH]c(-c2ccccc2)cn1/N=C/c1ccncc1 | 35.5 µM [falling, single point] | –
O=C(O)CC1=C(Nc2ccccc2)C(=O)N(c2ccccc2)C1c1ccc(F)cc1 (stereo not drawn) | 23.1 µM [falling, single point] | –
N#CC(C#N)=NNc1ccc(S(=O)(=O)N2CCCCC2)cc1 | 32.6 µM [falling, single point] | –
COc1cccc(-c2sc3ccc(OC)cc3c2-c2ccc(OCCN3CCCCC3)cc2)c1 | – | 23.1 µM [falling, partial curve, poor fit]
COc1ccc(C2C(C(C)=O)=C(O)C(=O)N2c2ccc(C)cc2)cc1 (stereo not drawn) | 11.2 µM [rising, single point] | –
Cc1ccc(C(=O)Nc2ccc(N3CCN(C(=O)c4cccs4)CC3)cc2)c(Cl)c1 | 10 µM [falling, partial curve] | –
Cc1cc2c(cc(C(=O)NCCCN3CCOCC3)n2Cc2ccc(Cl)cc2)o1 | 20.6 µM [rising, partial curve, poor fit] | –
NC(=O)c1ccccc1NC(=O)CCCc1ccccc1 | 15.8 µM [falling, single point] | –
OC(c1cc(-c2ccc(Cl)cc2)nc2ccccc12)C1CCCCN1 (stereo not drawn) | 20 µM [falling, partial curve, poor fit] | –
CCN(CC)c1ccc(N=Nc2nn(C)c(C)c2[N+](=O)[O-])cc1 | 13 µM [rising, partial curve] | –

Retrieved by structure from the list above, three records:
SMILES | AC50 [1] | AC50 [2]
COc1ccc(C2C(C(C)=O)=C(O)C(=O)N2c2ccc(C)cc2)cc1 (stereo not drawn) | 11.2 µM [rising, single point] | –
CNC(=O)NC(=O)COC(=O)CCCSc1nc2ccccc2s1 | 9.2 µM [falling, partial curve] | –
C=CCc1cc(/C=N/n2cnnc2)cc(OCC)c1O | 10 µM [rising, partial curve, poor fit] | –

Source: PubChem BioAssay AID493014 (National Center for Advancing Translational Sciences (NCATS), 2011)
